PubChem BioAssay AID602196 – INSERM, 2012

- Test: 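Genes whose knock-down alters cisplatin killing of lung cancer cells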
- System: human A549 lung cancer cells
- Reagent: siRNA pair against human genes
- Time to read-out: 48 h transfection before cisplatin; time from cisplatin to read-out not stated
- Challenge: cisplatin at a dose killing half of control-siRNA cells; exact dose and duration not given
- Read-out: 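Shift in cisplatin death relative to control siRNA, from -50 (all cells die) to +50 (no cells die); siRNAs harmful on their own scored 0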
- Scale: two-siRNA summed score (-2 to +2): higher = both siRNAs protect from cisplatin killing; -2 means both sensitise; mean protection from cisplatin (shift in death): higher = protection from cisplatin killing
- Call rule: 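Each siRNA scores 0 if harmful alone by LDH or WST-1, otherwise +1 if it reduces and -1 if it increases cisplatin killing; a gene is active when both siRNAs agree (sum +2 or -2)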
- Calls: active = both siRNAs shift cisplatin killing the same way; inactive = no consistent shift, or siRNA harmful alone
This is one part, drawn at random, of about 23,000 reagents tested. 455 of them (2%) count as active. 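Active includes both protection and sensitisation; some change values fall well beyond the stated -50 to +50 range.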 Entries without a mark were called inactive. Not all columns of the deposit are shown. Not given: the amount of reagent.

SLC36A3: two-siRNA summed score (-2 to +2) = 0; mean protection from cisplatin (shift in death) (%) = 6.6
RBMY1F: two-siRNA summed score (-2 to +2) = 0; mean protection from cisplatin (shift in death) (%) = 6.1
BIRC3: two-siRNA summed score (-2 to +2) = 0; mean protection from cisplatin (shift in death) (%) = 2
FCMR: two-siRNA summed score (-2 to +2) = 0; mean protection from cisplatin (shift in death) (%) = 0.9
KCNA2: two-siRNA summed score (-2 to +2) = 1; mean protection from cisplatin (shift in death) (%) = 5.9
BRMS1L: two-siRNA summed score (-2 to +2) = 1; mean protection from cisplatin (shift in death) (%) = 8.9
ARG2: two-siRNA summed score (-2 to +2) = 0; mean protection from cisplatin (shift in death) (%) = 9.9
CNGA4: two-siRNA summed score (-2 to +2) = 0; mean protection from cisplatin (shift in death) (%) = -8.9
LOC284672: two-siRNA summed score (-2 to +2) = -1; mean protection from cisplatin (shift in death) (%) = -8.1
ANKRD13D: two-siRNA summed score (-2 to +2) = 0; mean protection from cisplatin (shift in death) (%) = 4.9
KLHL42: two-siRNA summed score (-2 to +2) = 0; mean protection from cisplatin (shift in death) (%) = 2.1
TPT1: two-siRNA summed score (-2 to +2) = 1; mean protection from cisplatin (shift in death) (%) = 5.1
LOC388229: two-siRNA summed score (-2 to +2) = 1; mean protection from cisplatin (shift in death) (%) = 21.5
LOC441624: two-siRNA summed score (-2 to +2) = 0; mean protection from cisplatin (shift in death) (%) = 21.8
LOC441374: two-siRNA summed score (-2 to +2) = 1; mean protection from cisplatin (shift in death) (%) = 9.8
HOXC12: two-siRNA summed score (-2 to +2) = 0; mean protection from cisplatin (shift in death) (%) = 4.1
ERCC6: two-siRNA summed score (-2 to +2) = 0; mean protection from cisplatin (shift in death) (%) = 1
MRTFA: two-siRNA summed score (-2 to +2) = 0; mean protection from cisplatin (shift in death) (%) = 9.6
SGCE: two-siRNA summed score (-2 to +2) = 0; mean protection from cisplatin (shift in death) (%) = 0.9
DACT3: two-siRNA summed score (-2 to +2) = 0; mean protection from cisplatin (shift in death) (%) = 8.2
ZNF790: two-siRNA summed score (-2 to +2) = 0; mean protection from cisplatin (shift in death) (%) = 6.1

2 entries already listed, ordered by “two-siRNA summed score (-2 to +2)”, lowest first:
DACT3: two-siRNA summed score (-2 to +2) = 0; mean protection from cisplatin (shift in death) (%) = 8.2
ZNF790: two-siRNA summed score (-2 to +2) = 0; mean protection from cisplatin (shift in death) (%) = 6.1
